The campaign covered roughly 52,000 sequences. About 210 (0.4%) were called active.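 Rule for the calls: active = gene whose silencing raises cell survival under the drug, median off-target-corrected z-score across its silencing RNAs 2 or more; inactive = the rest.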 The list shows a part of the results.
Assay: Resistance to Poly (ADP-Ribose) Polymerase inhibitor: Gene Identification via Genome-wide siRNA Screen
Conditions: mouse BRCA2 R2336H ES cells, olaparib, CellTiter-Glo viability; active compounds read high
How it was run: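 Mouse BRCA2 R2336H ES cells were reverse-transfected with siRNA (20 nM final), treated at 48 h with 500 nM olaparib, and read by CellTiter-Glo after 72 h. Scores: MAD-based z per siRNA, median per gene, seed off-target correction.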

| Sequence | z-score |
| --- | --- |
| GGUUCAAUAAAAAUGCUUCTT against Ngp | inactive: 1.16 |
| GGAAAAUUGGCCAAAAUAATT against Pdcl | inactive: 0.579 |
| GCUAUAUCGCUAUGGACACTT against Cnot8 | inactive: -1.04 |
| GGUAUUACAAGGUCAUAUCTT against C78541 | inactive: -0.233 |
| GCAUCUUUGUGAAUGUUUATT against Slc7a3 | inactive: -0.938 |
| CCACAAUAGCUCGAACCAUTT against A730011L01Rik | inactive: -2.03 |
| GGAGGCAAAAUCUUUUGUATT against 1700024D23Rik | inactive: -0.912 |
| CGCAAGAUCCUCAAACGAGTT against Proc | inactive: 2.34 |
| GGCUCAGAUACUCUUAUAATT against 4921525H12 | inactive: -1.88 |
| GCCAGUCUUAAAUGAUCAATT against Evi2b | inactive: -0.912 |
| GCAUUUUAUGCACUCUGUCTT against Camk4 | inactive: -0.295 |
| GGGCACUGGAACAGAUUUUTT against Ccnh | inactive: 1.35 |
| GGAAUGGAGUCUCCAAAGUTT against Mgl2 | inactive: 1.36 |
| GGUAGAGACGUGAAUGCUCTT against 4732495E13Rik | inactive: -0.143 |
| CCUCAUUCGAUACAUCUGUTT against C77668 | inactive: 1.28 |
| GCCGUGGCCUAAUAAACGUTT against Nosip | inactive: 0.351 |
| GGUCGAAUGAAAAUCGCCATT against Arhgap18 | inactive: 0.212 |
| GGAAACAGGGCUACGACAGTT against C130036J11 | inactive: 0.599 |
| GGGCCCAGGCUAAAAUAAATT against C230069K22Rik | inactive: -0.586 |
| GCCAGAUGCUUACUAAGUGTT against 2610033H07Rik | inactive: -0.831 |
| GGUGAUGACAAAGUACAAUTT against Stx3 | inactive: 0.398 |
| GCAAGAGUACAUCAAUGAUTT against Wdr75 | inactive: -2.3 |
| GCAAGGAUCCACGCUUUUCTT against Ckmt2 | inactive: -1.57 |
| GGUUAUUAAGACCCAGGUCTT against 1700055O19Rik | inactive: 0.435 |
| CCAUCAAAGAAACAGAUUGTT against 1110018M03Rik | inactive: -0.964 |
| CGAGGAUUUCUGUUACUUATT against Lyst | inactive: -0.313 |

3 entries from above, as comma-separated lines.
Sequence,z-score
GCUAUAUCGCUAUGGACACTT against Cnot8,inactive: -1.04
CCUCAUUCGAUACAUCUGUTT against C77668,inactive: 1.28
CCAUCAAAGAAACAGAUUGTT against 1110018M03Rik,inactive: -0.964

Going on with the list:

| Sequence | z-score |
| --- | --- |
| GGAACGUGAUGAAGUGGUCTT against Gm720 | inactive: 1.3 |
| GGUAGACUGGUCAGAUACATT against Gm111 | inactive: 1.05 |
| GGUUCAUCAUUUGGAAACATT against Msh4 | inactive: -1.61 |
| GGUGAUUUUAUGACAGGAATT against Cbx6 | inactive: 0.366 |
| CGUGUUUCACAAGAGCAUATT against Svs2 | inactive: 0.158 |
| GGGAGUUUCAGACCAGUGUTT against Atp5g3 | inactive: -1.46 |
| GGUGAGAACGAGAUGGUGATT against Txnip | inactive: -1.08 |
| GGAAAAGGCCGAUUUCGUGTT against Dixdc1 | inactive: 0.0964 |
| GGAGCUUAAAGUGAGCGGCTT against 1110049G11Rik | inactive: -0.523 |
| GGAGGAUUCCAAAGUCCGATT against Sp5 | inactive: 1.37 |
| GGAAACGAGUUGGAGACAATT against Gtpbp1 | inactive: 0.416 |
| GCAGGAGAAAAGAAUCAAGTT against MGC118309 | inactive: 0.393 |
| GCCUGUCCACAUCACUGUATT against Gm905 | inactive: -0.457 |
| GGAAAACCUAAGGUUUAAUTT against 4933417C16Rik | inactive: -0.398 |
| GGUGUCGAGUAAGAAAGCUTT against BC046331 | inactive: -0.0444 |
| GGGAGUGCCUUUAAAACACTT against Satb1 | inactive: -1.22 |
| GGAACUCACUCGACAGAAGTT against 5730536A07Rik | inactive: -1.4 |
| GGUGUUAGCUACAGAGACCTT against Rab32 | inactive: 0.326 |
| GCAAGCACUGAACUUUGUCTT against 2900009I07Rik | inactive: 0.795 |
| GGACAUAGAUAAAUGCAGATT against D13Wsu50e | inactive: 1.08 |
| GGGAACAGUAUCUGAUUCATT against Polg | inactive: 0.25 |
| GGGAUUCAGAGUCAAGAUUTT against Thpo | inactive: 0.898 |
| CCCUACAGUACUAAUCAAATT against Ptgs2 | inactive: -1.05 |
| GGCUUUCAGAGUUAACAAATT against Ptpn4 | inactive: -0.914 |
| GCUCAGGAUCGCUAUUACATT against Il12b | inactive: -1.37 |
| GGAGAUUUCAUGAACUCUGTT against AB041661 | inactive: 0.14 |

| Sequence | z-score |
| --- | --- |
| GCAGGACUUACAUGAGAAUTT against 1200015N20Rik | inactive: 0.329 |
| GGUCUUGGAGUUGCUAAUUTT against Vdrip | inactive: -0.168 |
| GCCUUUUUGGAGAAUGAAUTT against Rhbdl | inactive: -0.143 |
| GGAGUGUUUGAGAAAUACCTT against BC027342 | inactive: -0.283 |
| GGAUGCUGUUUACCUAUACTT against D630035O19Rik | inactive: 0.419 |
| CCUCAGAAAAAGAGUGUGCTT against 4930563M21Rik | inactive: -0.534 |
| GGAGAGCUUUCUGAACUGUTT against AI415330 | inactive: -0.302 |
| GGAAAACAAGCCUGUAUUUTT against Mbd4 | inactive: -0.781 |
| GGCCAAAAUCUCAACAUAUTT against Glcci1 | inactive: -1.84 |
| UUGUUGCCAAGUAUCUGUCTT against Ugt1a13 | inactive: -0.843 |
| CCAUAGCUCUGGAAUGGUGTT against C030030G16Rik | inactive: 1.2 |
| GGGACAGUGUCCAGAAAAGTT against D130020L05Rik | inactive: -1.14 |
| CCUUGGAGAGAGAAGACAUTT against Rpp38 | inactive: -0.7 |
| GCCUGUGAGAUCAUCUUUUTT against Pkd2 | inactive: 0.347 |
| CCUUAGGAGUACUUAAAAATT against Isl1 | inactive: 0.948 |
| GGAGGUUCUGCCCAUAACUTT against Whrn | inactive: 0.192 |
| GGUCUUGUGGUGGUACUACTT against Elovl2 | inactive: 1.82 |
| GGCCAUGCUGAGUUAGAUATT against Slc10a3 | inactive: 1.12 |
| GGAUGCUAUGCCAAAAACUTT against Csrp1 | inactive: 1.26 |
| CCUGGUCUAUAAGGUUUGUTT against Mscp | inactive: -0.0958 |
| GGUGCUUAAACUUCACCCUTT against Polg2 | inactive: 1.68 |
| GGGCCCAGUUGAUCAAAGATT against 1700031F13Rik | inactive: 0.00981 |
| GGACAGUUUCACGACAACGTT against Khsrp | inactive: -2.65 |
| GGAAAGACCACCAAAUCCCTT against 2810410M20Rik | inactive: 1.07 |
| CGAGGUGCUAAUCUGGCCUTT against 2410015N17Rik | inactive: -1.33 |
| GGGAAUCCUCAAAUAAAGCTT against 1810062O14Rik | inactive: -0.154 |

An excerpt of these results, with bars between the fields.
Sequence | z-score
CCUUGGAGAGAGAAGACAUTT against Rpp38 | inactive: -0.7
CCUGGUCUAUAAGGUUUGUTT against Mscp | inactive: -0.0958

An excerpt of these results, field by field.
GGCCAAAAUCUCAACAUAUTT against Glcci1
  z-score: inactive: -1.84
UUGUUGCCAAGUAUCUGUCTT against Ugt1a13
  z-score: inactive: -0.843
CCUUGGAGAGAGAAGACAUTT against Rpp38
  z-score: inactive: -0.7
GGAUGCUAUGCCAAAAACUTT against Csrp1
  z-score: inactive: 1.26

Additional records:

| Sequence | z-score |
| --- | --- |
| CCGAGAACCUUAAACUCCCTT against 4921515A04Rik | inactive: -0.567 |
| GGUUGGGAGACCCAAUCUGTT against 6430559E15Rik | inactive: 1.69 |
| GGAGAGAAAAAGUAAUAUCTT against Fgf1 | inactive: -0.941 |
| GUAAUCUUCACCGCCUCUCTT against Olfr315 | inactive: 1.85 |
| CCCAGAAGGAUCUGCUCUUTT against 2010016F14Rik | inactive: -0.246 |
| GUCUUCCGGACAAGACAUATT against Hoxa6 | inactive: 0.439 |
| GGAUGAGGAUUUUGAUUGGTT against Tce1 | inactive: 0.402 |
| GCUGCAUUUGUGCUACUUUTT against 1110001A07Rik | inactive: -0.106 |
| GGCAGAAUCAGUUGAAAUUTT against Terf2ip | inactive: -0.709 |
| GGACAGCAAUAUUACACGUTT against Zfp39 | inactive: 1.79 |
| GGGAGUCACGAAAUUACAATT against Slco6c1 | inactive: -0.578 |
| GGGCUCUUAUAACUCUUUATT against Calm4 | inactive: 0.313 |
| GGAAGAAAAGGGAUAUCAGTT against Cmya1 | inactive: 0.251 |
| GACUUACUUGCAUCACUGATT against V1rc21 | inactive: 0.554 |
| GGACACGCUUCAAAUGGAUTT against Lcmt1 | inactive: 0.97 |
| GCAUGUUGAUCAAGACUUGTT against Cdk6 | inactive: -0.156 |
| GGCUAUACUCUGAAUUCAATT against Zfp61 | inactive: -0.21 |
| GGCCUUAUGGAGUAAACUUTT against Ang3 | inactive: -1.04 |
| UUAUAUCCUGCCUUCUAUUTT against Psg28 | inactive: -0.315 |
| GGAUACAACUCCUGUGAUGTT against Hbp1 | inactive: 0.349 |
| GGUGAAAAACAACAUCUGCTT against Coq4 | inactive: 0.0981 |
| GGACAGAAUGCUGAUGUUUTT against Rgl1 | inactive: -1.55 |
| CGCAAGCCUGACAUACUGCTT against Etv3 | inactive: -1.42 |
| GGAAGGCAUAAGAAAACUGTT against Tbk1 | inactive: 0.774 |
| GGAGCUGUUUCCAGUUCAGTT against Tomm40 | inactive: -1.85 |
| CCGUGUUCCGAGGAUAUGUTT against Cyp2e1 | inactive: 0.513 |
